Laboratory results taken from PubChem BioAssay AID2685 (National Center for Advancing Translational Sciences (NCATS), 2010).
The campaign covered roughly 320,000 compounds. About 2,100 (0.66%) were called active. This list was built around the results that the source calls inconclusive (neither active nor inactive); the mix of calls is not that of the screen. The call rests on the fitted dose curve; in most records, active means well fitted inhibition curve with a large enough effect in the signal ratio, with a control signal flat (not every such curve was filed as active); inconclusive means small, poorly fitted or top-dose-only effect, or effect the other way, or a change in a side signal; inactive means flat fitted curve, though single readings scatter; the % refers to the signal ratio. Potencies beside an inconclusive call are fits to weak or partial responses and may not hold up.

assay: qHTS Assay for Lipid Storage Modulators in Drosophila S3 Cells; conditions: BODIPY lipid droplet fluorescence, 18-24 h, cells fed with added oleic acid; lipid storage change, negative = inhibition: at 46.1 µM (top of the series) unless noted
Summary of the method: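 Laser-scanning cytometry quantifies lipid droplet accumulation (500–530 nm total intensity; droplet/cell object ratio) in oleic acid-fed (400 uM added) Drosophila S3 cells treated with a concentration series. 20 uM Triacsin C defined 100% inhibition.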
On the % scale 0 is the no-effect control and ±100 the full control effect; potency means the concentration at half of the fitted maximal effect.

Lipid storage change, negative = inhibition, inconclusive:
COc1ccc(COC(=O)C2CCN(S(=O)(=O)c3ccc(F)cc3)CC2)cc1, Cc1ccc(C2(CCNC(C)c3cccs3)CCOC(C(C)C)C2)cc1 (stereo not drawn) 13.1%, CCC1C(=O)NCCN1C(=O)c1ccccc1OC1CCN(S(C)(=O)=O)CC1 (stereo not drawn) 1.7%, CCOC(=O)c1c(C)n(C(=O)c2ccco2)c(=O)n1C(=O)c1ccco1 8.58%, COc1ccc(CCNC(=O)CN(c2ccc(OC)c(OC)c2)S(C)(=O)=O)cc1 -3.18%, CC1CCN(CC(C)OC(=O)c2ccc3c(c2)OCCO3)CC1 (stereo not drawn) 59.7% [activator], O=C(O)C1C2C=CC(C2)C1C(=O)NCCCN1CCOCC1 (stereo not drawn) -114%, CCOC(=O)c1c(CN2CCN(C)CC2)n(-c2ccccc2)c2cc(Br)c(O)cc12 -2.54%, C=CCOc1ccc(/C=C2\C(=N)N3N=C(S(=O)(=O)CC)SC3=NC2=O)cc1OC -1.82%, Cc1ccc(C(=O)Nc2nc(-c3ccc(F)cc3)cs2)o1 -40.7%, COc1c(C=O)cc2c3c1CCCN3CCC2 56.6%, COC(=O)c1ccc(/C=N/NC(=O)c2ccccc2Cl)cc1 -12.1%, CS(=O)(=O)c1ccc2nc(NC(=O)c3ccc(Cn4cc(Br)cn4)o3)sc2c1 -22.9%, Cc1ccccc1C(=O)c1cccn1CC(=O)NCc1ccco1 13.1%, CCN1CCN(C(=O)CCNC(=O)Cn2cnc3ccccc3c2=O)CC1 25%, O=S(=O)(c1cccc(-c2nnco2)c1)N1CCCC1 -31.2%, N/C(=N\OC(=O)Cc1ccc(Cl)cc1)c1ccccn1 2.44%, C/C(CC(=O)NC(C)C)=N\NC(=O)COc1cc(C)c(Br)cc1Br 24.9%, CN1C(=O)CS(=O)c2ccc(C(=O)NC3CC3)cc21 (stereo not drawn) 37.6%, Cc1c(NC(=O)c2cc(=O)[nH]c(=O)[nH]2)c(=O)n(-c2ccccc2)n1C -37.9%, COc1ccc(S(=O)(=O)NCC2CCCN(C(=O)C3CCCC3)C2)cc1 (stereo not drawn) 8.36%, O=C(CN1CCCC1)NC1C2CC3CC(C2)CC1C3 (stereo not drawn) 2.15%, Cc1ccc(-c2cc(C(=O)NCCCN3CCOCC3)c3ccccc3n2)cc1 31.9%, O=C(NCc1ccccc1)c1cc(S(=O)(=O)N2CCOCC2)ccc1F 60.2%, Cn1c(N)c(C(=O)COC(=O)CCc2nc3ccccc3s2)c(=O)n(C)c1=O 1.51%, CC[C@H](CO)Nc1nc(Nc2cccc(Cl)c2)c2ncn(C(C)C)c2n1 0.379%, CCOc1ccc(-n2c(COc3ccccc3)nnc2SCC(N)=O)cc1 11.5%, CCOC(=O)c1c(NC(=O)c2cccc(N3C(=O)CCC3=O)c2)sc2c1CCN(CC)C2 -38.7%, CSc1cccc(CN2CCC(CO)(Cc3cccc(C(F)(F)F)c3)CC2)c1 -25.2%, N#CCSc1nc2sc3c(c2c(=O)n1C1CCCCC1)CCCC3 -40.6% [at 0.0737 µM], CCCCCCCCOc1ccc(C2OC34CCCCC3C(C#N)(C#N)C2(C#N)C(=N)O4)cc1 (stereo not drawn) -64.1% [at 0.0737 µM], CNS(=O)(=O)c1cccc(C(=O)OCC(=O)N2c3ccccc3CC2C)c1 (stereo not drawn) -1.47%, O=S(=O)(Nc1ccc(-n2cccc2)cc1)c1ccc(Cl)c(Cl)c1 -98.9%, CC(=O)O[C@]1(C(C)=O)CCC2C3CCC4=C/C(=N/OCC(=O)O)CC[C@]4(C)C3CC[C@@]21C (stereo partly drawn) -142%, COc1cc(C)ccc1S(=O)(=O)NC1CC(C)(C)NC(C)(C)C1 -86.6%, c1ccc(C(c2ccccc2)c2noc(CN3CCC(c4ccncc4)CC3)n2)cc1 10.5%, CCOc1ccc(-n2c(SCC(=O)NC)nnc2-c2ccco2)cc1 54.1%, CS(=O)(=O)N1CCC(Oc2ccccc2C(=O)N2CCCCC2CO)CC1 (stereo not drawn) -22%, Cc1nc2c(C(=O)NCCC(C)C)c[nH]n2c(=O)c1Cl -7.47%, CN(c1ccccc1)C1CCCCC1NS(=O)(=O)c1ccc(Cl)cc1 (stereo not drawn) 22.9%, Cc1ccc(C(=O)NCCc2ccccc2)cc1S(=O)(=O)N1CCOCC1 -41.3%, CCOc1ccc(N(CC(=O)Nc2ccc(CC)cc2)S(=O)(=O)c2c(C)[nH]c(=O)[nH]c2=O)cc1 13.6%, COc1ccc(N2CCN(C3CCCN(C(=O)CSC)C3)CC2)cc1 (stereo not drawn) -14.1%, c1ccc(-c2cc(-c3ccc(N4CCOCC4)cc3)nc3ccccc23)cc1 39.1%, CCOc1ccc(NC(=S)Nc2cc(OC)c(Cl)cc2OC)cc1 66.4%, CCOc1ccc(NC(=O)Nc2cc(C)ccc2F)cc1 -0.907%, NNC(=O)COc1cccc(Oc2ccccc2)c1 12%, Cc1ccc(OCCNC(=O)c2cncc(Br)c2)cc1C -64.8%, COCCN(CC(=O)Nc1ccccc1C(F)(F)F)C(=O)/C=C/c1cc(Cl)c2c(c1)OCO2 -73.7%, Cc1ccc(C(=O)NCC(=O)OCC(=O)Nc2ccccc2C#N)s1 -21.6%, CCOC(=O)CCCCC(=O)c1[nH]c(=O)[nH]c1CN1CCOCC1 1.24%, N/C(=N\OC(=O)c1cccc(Cl)c1)c1ccccn1 27.2%, Cc1cc2ccccc2n2c(SCC(=O)Nc3ccc(S(=O)(=O)N4CCCCC4)cc3)nnc12 41.7%, CCC(=NC)C1=C(O)CC(c2ccccc2)CC1=O (stereo not drawn) -32.8%

Lipid storage change, negative = inhibition, inactive:
CC(C)CCN1CC(C(=O)NC(C)C)CC1=O (stereo not drawn) 1.74%

Potency, active:
Cc1cccc2c(C(=O)O)c3c(nc12)CCCCC3 18.4 µM

Potency, inconclusive:
NS(=O)(=O)c1ccc(CCN=C(NS(=O)(=O)c2cccs2)c2ccccc2)cc1 1.84 µM [falling, single point], O=C(C[n+]1ccccc1)c1ccc(NC(=O)c2ccccc2)cc1 6.51 µM [falling, single point], CCOc1ccc(C(=O)NCc2ccco2)cc1OC 6.51 µM [falling, partial curve, poor fit], Cc1cc(C)n(S(=O)(=O)c2ccc(F)cc2)n1 10.3 µM [activator, partial curve], O=c1[nH]c(-c2ccccc2Cl)nc2c1sc(=S)n2-c1ccccc1 14.6 µM [falling, single point], CCC(=O)Nc1ccccc1C(=O)OCC(=O)Nc1ccc(S(N)(=O)=O)cc1 0.58 µM [falling, partial curve, poor fit], O=C(Cn1c(=O)n(Cc2ccccc2)c(=O)c2cc(Cl)ccc21)NCC1CCCO1 (stereo not drawn) 6.51 µM [activator, single point], CC1CCc2[nH]c3ccc(C(=O)O)cc3c2C1 (stereo not drawn) 32.6 µM [falling, single point], O=C(c1ccc(S(=O)(=O)Cc2cc(F)ccc2F)c([N+](=O)[O-])c1)N1CCCCC1 29.1 µM [falling, single point], Cc1ccc(N(CN2CCCC2=O)C(=O)c2ccc(C)c(C)c2)cc1 1.46 µM [rising, partial curve, poor fit], CCOC(=O)c1ccc(S(=O)(=O)N2CCC(C(=O)O)CC2)cc1 20.6 µM [falling, single point], Cc1ccc(NC(=O)CCc2ccc(S(=O)(=O)N3CCOCC3)cc2)c(C)c1 0.146 µM [activator, full curve, poor fit], CCOC(=O)c1c(NC(=O)Cn2nnc3ccccc32)sc2c1CCC(C)C2 (stereo not drawn) 0.366 µM [activator, full curve, poor fit], COc1cccc(-c2cc(C(=O)Nc3nc4ccccc4s3)c3ccccc3n2)c1 20.6 µM [falling, single point], CCOC(=O)c1nnn(-c2nonc2N)c1COc1ccccc1 0.326 µM [activator, single point], CC(C)(C)c1ccccc1OCC(=O)NCCCn1ccnc1 29.1 µM [activator, single point], COc1cc(OC)c(C2=NOC(C(=O)NCc3cccnc3)C2)cc1Cl (stereo not drawn) 0.0046 µM [activator, full curve, poor fit], CCCCC1S/C(=N/N=C/c2ccco2)NC1=O (stereo not drawn) 29.1 µM [activator, single point], Cc1ccc2c(c1)c1ncnc(N3CCN(c4ccccc4)CC3)c1n2C 29.1 µM [activator, partial curve, poor fit], CC(C)NC(=O)C1COc2ccccc2O1 (stereo not drawn) 32.6 µM [activator, single point], COc1ccccc1CNC(=O)c1cc2ccccc2o1 29.1 µM [activator, single point], O=C(CN1CCN(Cc2cccc(F)c2)CC1)Nc1ccccc1F 29.1 µM [activator, single point]
